Data reported in patent US11491150B2, “Organic compounds” (INTRA-CELLULAR THERAPIES, INC., priority 2017, dated 2022).
Some results were stated once for a whole list of compounds, not compound by compound.

Molecular target: nicotinic acetylcholine receptor
Experiment: KD binding affinity to the nicotinic acetylcholine receptor

In the case of `NS(=O)(=O)c1ccc(Cn2ncc(C(=O)NCC3CCN(Cc4ccccc4)CC3)n2)cc1` [Compound 17], the Kd is reported as ≤ 0.7 nM.

In the case of `CCc1c(C(=O)NCC2CCN(Cc3ccc(C(=O)O)cc3)CC2)nnn1Cc1ccccc1` [Compound 13], the Kd is reported as ≤ 0.7 nM.

With `CCc1c(C(=O)NCC2CCN(Cc3ccc(S(N)(=O)=O)cc3)CC2)nnn1Cc1ccccc1C` [Compound 12] the Kd was ≤ 0.7 nM.

`CN(CC1CC[N+](C)(Cc2ccccc2)CC1)C(=O)c1cn(Cc2ccccc2Cl)nn1` (centres unmarked) [Compound 16] was tested, and the Kd was ≤ 0.7 nM.

For `CN(CC1CCN(Cc2ccccc2)CC1)C(=O)c1cn(Cc2ccccc2Cl)nn1` [Compound 7], the Kd was ≤ 0.7 nM.

In the case of `O=C(O)c1ccc(Cn2cc(C(=O)NCC3CCN(Cc4ccccc4)CC3)nn2)cc1` [Compound 15], the Kd is reported as ≤ 0.7 nM.

`NS(=O)(=O)c1ccc(Cn2cc(C(=O)NCC3CCN(Cc4ccccc4)CC3)nn2)cc1` [Compound 10] was tested, and the Kd was ≤ 0.7 nM.

With `CCc1c(C(=O)NCC2CCN(Cc3ccc(S(N)(=O)=O)cc3)CC2)nnn1Cc1ccccc1` [Compound 11] the Kd was ≤ 0.7 nM.

For `O=C(O)c1ccc(CN2CCC(NC(=O)c3cnn(-c4ccccc4)c3-c3ccccc3)CC2)cc1` [Compound 4], the Kd was ≤ 0.7 nM.

In the case of `CN(CC1CCN(Cc2ccccc2)CC1)C(=O)c1cn(Cc2ccc(C(=O)O)cc2Cl)nn1` [Compound 9], the Kd is reported as ≤ 0.7 nM.

For `CCCc1c(C(=O)NC2CCN(Cc3ccc(S(N)(=O)=O)cc3)CC2)cnn1-c1ccc(Cl)cc1` [Compound 2], the Kd was ≤ 0.7 nM.

For `NS(=O)(=O)c1ccc(CN2CCC(CNC(=O)c3cn(Cc4ccccc4)nn3)CC2)cc1` [Compound 3], the Kd was ≤ 0.7 nM.

In the case of `CCCc1cc(C(=O)NC2CCN(Cc3ccccc3)CC2)nn1-c1ccc(C(=O)O)cc1` [Compound 6], the Kd is reported as ≤ 0.7 nM.

For `CCCc1cc(C(=O)NC2CC[N+](C)(Cc3ccccc3)CC2)nn1-c1ccccc1` (centres unmarked) [Compound 5], the Kd was ≤ 0.7 nM.

With `O=C(O)c1ccc(Cn2ncc(C(=O)NCC3CCN(Cc4ccccc4)CC3)n2)cc1` [Compound 18] the Kd was ≤ 0.7 nM.

For `CCc1c(C(=O)NCC2CCN(Cc3ccc(C(=O)O)cc3)CC2)nnn1Cc1ccccc1C` [Compound 14], the Kd was ≤ 0.7 nM.

`CCCc1c(C(=O)NC2CCN(Cc3ccccc3)CC2)cnn1-c1ccccc1` [Compound 1] was tested, and the Kd was ≤ 0.7 nM.
